Assay: general procedure: solution-phase peptide synthesis; HATU, DIEA

Boc-GGFG-PAB-OH (h-0473)
step yield (late stage modification step): 96.7% yield

Boc-GGFG-payload (h-0468)
conjugation yield (conjugation step): 47.2% yield
